{
  "sequences": {"note": "Sequences of proteins named here, by UniProt entry; tags and fusion partners are left off.", "UniProt Q14524, whole entry": "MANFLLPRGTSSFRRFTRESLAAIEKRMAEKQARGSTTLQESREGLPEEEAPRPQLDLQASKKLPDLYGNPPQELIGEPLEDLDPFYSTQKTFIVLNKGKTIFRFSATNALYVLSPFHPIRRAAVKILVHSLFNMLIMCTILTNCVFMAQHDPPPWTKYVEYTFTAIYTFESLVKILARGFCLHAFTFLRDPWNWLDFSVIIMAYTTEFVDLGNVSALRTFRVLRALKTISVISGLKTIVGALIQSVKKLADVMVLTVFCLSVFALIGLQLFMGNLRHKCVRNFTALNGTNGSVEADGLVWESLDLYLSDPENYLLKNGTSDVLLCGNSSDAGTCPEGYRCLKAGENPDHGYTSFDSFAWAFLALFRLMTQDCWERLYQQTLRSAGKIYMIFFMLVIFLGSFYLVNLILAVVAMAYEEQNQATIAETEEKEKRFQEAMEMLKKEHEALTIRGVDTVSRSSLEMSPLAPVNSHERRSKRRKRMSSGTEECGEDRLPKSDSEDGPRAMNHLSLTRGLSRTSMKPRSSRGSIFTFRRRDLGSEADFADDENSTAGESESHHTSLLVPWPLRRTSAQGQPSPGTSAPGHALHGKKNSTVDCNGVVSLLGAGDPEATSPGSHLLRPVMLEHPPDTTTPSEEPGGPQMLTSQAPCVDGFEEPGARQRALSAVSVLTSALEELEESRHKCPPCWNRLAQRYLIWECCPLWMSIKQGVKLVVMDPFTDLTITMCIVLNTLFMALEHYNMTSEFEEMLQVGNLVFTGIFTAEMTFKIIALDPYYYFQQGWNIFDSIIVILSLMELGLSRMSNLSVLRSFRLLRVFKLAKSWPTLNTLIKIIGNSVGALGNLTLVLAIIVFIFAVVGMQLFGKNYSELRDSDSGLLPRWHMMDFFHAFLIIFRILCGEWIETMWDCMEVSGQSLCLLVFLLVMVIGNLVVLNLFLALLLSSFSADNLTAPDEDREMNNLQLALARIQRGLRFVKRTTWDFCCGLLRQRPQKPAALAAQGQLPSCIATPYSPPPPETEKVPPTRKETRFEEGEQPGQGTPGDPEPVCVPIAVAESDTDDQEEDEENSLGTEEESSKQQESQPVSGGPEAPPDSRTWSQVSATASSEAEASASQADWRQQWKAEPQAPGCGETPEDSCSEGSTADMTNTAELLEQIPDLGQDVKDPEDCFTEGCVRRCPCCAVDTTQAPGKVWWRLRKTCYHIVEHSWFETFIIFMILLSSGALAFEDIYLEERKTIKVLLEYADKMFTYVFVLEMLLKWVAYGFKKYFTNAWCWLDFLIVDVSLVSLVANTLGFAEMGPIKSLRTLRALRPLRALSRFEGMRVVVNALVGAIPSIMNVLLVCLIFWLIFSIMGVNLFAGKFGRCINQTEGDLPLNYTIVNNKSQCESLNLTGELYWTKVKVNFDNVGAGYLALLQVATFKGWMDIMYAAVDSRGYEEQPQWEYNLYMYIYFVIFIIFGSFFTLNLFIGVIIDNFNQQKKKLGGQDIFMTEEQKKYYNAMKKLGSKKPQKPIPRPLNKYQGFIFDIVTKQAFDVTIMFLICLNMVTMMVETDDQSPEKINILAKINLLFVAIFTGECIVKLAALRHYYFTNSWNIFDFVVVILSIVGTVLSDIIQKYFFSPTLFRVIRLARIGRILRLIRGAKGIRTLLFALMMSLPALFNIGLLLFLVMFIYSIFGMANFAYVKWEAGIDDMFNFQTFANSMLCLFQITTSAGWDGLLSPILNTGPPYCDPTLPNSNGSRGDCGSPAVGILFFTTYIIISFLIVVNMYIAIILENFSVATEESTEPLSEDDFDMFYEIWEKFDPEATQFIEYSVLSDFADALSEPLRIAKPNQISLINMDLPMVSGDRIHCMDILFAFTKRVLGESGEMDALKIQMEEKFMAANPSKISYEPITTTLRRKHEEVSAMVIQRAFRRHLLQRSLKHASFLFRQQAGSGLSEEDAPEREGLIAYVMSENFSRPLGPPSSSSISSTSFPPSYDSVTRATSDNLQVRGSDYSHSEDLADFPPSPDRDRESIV", "UniProt Q9NY46, whole entry": "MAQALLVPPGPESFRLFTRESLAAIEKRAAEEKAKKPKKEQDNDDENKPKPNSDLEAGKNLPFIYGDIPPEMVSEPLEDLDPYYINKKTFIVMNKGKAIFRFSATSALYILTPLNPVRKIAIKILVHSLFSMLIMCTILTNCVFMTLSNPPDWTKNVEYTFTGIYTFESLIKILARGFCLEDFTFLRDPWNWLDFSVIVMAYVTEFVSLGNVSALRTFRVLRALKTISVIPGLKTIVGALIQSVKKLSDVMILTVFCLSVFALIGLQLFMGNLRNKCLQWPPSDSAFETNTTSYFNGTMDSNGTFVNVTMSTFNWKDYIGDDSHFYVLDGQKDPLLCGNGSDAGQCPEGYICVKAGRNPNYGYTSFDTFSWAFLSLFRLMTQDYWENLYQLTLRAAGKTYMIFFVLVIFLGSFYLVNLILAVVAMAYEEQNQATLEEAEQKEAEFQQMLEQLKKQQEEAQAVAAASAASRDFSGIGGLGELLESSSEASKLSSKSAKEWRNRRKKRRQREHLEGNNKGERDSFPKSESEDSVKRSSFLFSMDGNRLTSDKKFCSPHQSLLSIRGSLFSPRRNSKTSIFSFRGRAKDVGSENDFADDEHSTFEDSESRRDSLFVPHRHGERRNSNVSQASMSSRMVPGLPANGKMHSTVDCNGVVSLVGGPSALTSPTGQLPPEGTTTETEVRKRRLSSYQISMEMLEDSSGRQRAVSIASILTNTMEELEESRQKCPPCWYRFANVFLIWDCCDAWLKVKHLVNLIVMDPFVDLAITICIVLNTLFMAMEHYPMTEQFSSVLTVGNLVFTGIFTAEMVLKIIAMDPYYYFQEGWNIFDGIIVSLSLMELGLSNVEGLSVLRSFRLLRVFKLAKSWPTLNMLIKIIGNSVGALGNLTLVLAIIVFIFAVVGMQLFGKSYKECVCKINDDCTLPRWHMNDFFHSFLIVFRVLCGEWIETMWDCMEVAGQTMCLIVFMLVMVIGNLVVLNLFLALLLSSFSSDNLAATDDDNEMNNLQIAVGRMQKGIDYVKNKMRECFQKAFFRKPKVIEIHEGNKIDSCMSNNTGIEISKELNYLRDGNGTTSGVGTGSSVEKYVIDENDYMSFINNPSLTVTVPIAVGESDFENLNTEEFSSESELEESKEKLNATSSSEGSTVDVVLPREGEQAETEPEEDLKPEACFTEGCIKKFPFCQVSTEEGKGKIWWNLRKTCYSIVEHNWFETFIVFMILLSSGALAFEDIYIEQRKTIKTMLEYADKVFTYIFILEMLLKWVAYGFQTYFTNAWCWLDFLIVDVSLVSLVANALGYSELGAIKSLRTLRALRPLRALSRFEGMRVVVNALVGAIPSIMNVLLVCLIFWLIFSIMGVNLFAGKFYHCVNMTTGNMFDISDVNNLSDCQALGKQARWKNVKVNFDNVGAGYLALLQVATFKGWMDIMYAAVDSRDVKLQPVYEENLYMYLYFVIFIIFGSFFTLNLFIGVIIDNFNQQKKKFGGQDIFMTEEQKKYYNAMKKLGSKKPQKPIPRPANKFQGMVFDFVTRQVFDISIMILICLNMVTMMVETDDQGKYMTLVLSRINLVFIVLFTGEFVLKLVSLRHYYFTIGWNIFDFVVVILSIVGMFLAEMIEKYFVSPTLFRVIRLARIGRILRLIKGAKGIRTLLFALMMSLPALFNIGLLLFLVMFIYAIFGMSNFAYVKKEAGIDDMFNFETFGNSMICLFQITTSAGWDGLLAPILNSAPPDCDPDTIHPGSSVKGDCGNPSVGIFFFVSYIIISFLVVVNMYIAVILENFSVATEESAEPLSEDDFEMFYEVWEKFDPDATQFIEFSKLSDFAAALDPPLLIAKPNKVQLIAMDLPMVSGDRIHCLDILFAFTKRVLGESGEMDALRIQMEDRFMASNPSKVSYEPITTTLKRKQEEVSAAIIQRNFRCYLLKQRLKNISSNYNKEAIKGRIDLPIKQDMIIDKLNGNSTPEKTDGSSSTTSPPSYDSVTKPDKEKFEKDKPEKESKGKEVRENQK", "UniProt Q15858, whole entry": "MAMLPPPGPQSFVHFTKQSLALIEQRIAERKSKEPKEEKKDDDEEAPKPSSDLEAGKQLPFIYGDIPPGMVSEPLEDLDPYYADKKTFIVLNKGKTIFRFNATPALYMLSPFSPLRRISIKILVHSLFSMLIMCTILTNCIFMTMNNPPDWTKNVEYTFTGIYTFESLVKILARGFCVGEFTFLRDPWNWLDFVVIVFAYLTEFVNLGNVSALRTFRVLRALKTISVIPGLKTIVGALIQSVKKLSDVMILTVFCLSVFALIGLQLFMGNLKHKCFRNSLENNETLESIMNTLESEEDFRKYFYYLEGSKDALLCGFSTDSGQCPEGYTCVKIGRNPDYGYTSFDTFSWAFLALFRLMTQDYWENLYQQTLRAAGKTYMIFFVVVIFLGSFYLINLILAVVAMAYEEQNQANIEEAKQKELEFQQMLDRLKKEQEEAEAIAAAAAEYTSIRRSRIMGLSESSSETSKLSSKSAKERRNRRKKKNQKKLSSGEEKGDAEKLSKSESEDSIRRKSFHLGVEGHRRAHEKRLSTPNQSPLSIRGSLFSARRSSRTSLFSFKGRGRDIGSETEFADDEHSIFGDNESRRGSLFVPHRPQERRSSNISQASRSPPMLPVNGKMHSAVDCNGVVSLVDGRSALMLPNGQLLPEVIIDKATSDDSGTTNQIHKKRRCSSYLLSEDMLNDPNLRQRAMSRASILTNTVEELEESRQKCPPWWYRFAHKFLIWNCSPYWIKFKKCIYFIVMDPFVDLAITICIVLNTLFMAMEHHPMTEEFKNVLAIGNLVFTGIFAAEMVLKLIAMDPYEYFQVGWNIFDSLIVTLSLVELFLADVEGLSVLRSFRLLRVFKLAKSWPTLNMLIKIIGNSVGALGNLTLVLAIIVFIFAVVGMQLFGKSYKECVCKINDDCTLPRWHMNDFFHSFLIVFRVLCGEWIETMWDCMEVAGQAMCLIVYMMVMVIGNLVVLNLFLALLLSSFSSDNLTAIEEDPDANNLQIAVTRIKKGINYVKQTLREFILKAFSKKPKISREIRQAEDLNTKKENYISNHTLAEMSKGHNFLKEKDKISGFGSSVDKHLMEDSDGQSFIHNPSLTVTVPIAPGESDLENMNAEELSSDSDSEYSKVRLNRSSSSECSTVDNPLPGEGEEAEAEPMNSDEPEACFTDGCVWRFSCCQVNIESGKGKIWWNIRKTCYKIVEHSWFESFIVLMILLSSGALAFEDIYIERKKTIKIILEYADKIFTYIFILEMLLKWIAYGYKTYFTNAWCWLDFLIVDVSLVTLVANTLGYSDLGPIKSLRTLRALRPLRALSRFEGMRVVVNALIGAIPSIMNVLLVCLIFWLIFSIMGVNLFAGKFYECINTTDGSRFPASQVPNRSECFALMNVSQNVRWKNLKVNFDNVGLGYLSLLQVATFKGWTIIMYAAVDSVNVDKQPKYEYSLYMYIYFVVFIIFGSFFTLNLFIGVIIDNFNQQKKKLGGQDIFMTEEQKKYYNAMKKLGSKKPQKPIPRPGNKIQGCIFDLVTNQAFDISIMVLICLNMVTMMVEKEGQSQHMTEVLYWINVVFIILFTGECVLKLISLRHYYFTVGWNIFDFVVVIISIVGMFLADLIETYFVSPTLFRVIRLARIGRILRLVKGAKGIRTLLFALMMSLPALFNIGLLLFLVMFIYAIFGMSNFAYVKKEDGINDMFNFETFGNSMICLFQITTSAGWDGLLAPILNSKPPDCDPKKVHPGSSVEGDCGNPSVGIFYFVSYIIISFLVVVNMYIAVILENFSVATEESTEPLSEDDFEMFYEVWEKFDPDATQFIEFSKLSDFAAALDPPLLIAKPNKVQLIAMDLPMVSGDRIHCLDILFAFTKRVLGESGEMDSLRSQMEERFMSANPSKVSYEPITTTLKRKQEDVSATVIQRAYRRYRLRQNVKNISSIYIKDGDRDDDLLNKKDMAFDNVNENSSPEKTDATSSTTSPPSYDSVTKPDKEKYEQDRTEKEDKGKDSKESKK", "UniProt P22001, whole entry": "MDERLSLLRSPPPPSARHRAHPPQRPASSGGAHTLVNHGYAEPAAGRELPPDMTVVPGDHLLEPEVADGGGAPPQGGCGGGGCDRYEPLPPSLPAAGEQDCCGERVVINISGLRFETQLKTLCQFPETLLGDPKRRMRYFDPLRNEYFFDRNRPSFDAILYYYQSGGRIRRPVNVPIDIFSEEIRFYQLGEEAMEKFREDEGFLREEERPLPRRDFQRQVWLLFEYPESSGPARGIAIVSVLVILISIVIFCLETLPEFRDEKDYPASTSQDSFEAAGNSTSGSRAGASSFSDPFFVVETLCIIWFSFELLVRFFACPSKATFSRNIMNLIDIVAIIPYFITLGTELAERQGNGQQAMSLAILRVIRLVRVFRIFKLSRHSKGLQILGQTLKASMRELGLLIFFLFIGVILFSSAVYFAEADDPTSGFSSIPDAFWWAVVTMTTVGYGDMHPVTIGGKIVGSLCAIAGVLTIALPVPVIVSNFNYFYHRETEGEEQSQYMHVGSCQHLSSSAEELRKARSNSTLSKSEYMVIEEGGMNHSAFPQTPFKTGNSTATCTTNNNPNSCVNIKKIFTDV"},
  "source": "patent US20200262877A1",
  "about": "“ION CHANNEL-BINDING PEPTIDES AND METHODS OF USE THEREOF” (priority 2017, published 2020)",
  "key": {"[1]": {"target": "Nav1.5 cardiac sodium channel (human SCN5A gene) (Homo sapiens, UniProt Q14524)", "conditions": "read-out: IC50 Nav1.5 ion channel inhibition, TP2; human Nav1.5 in CHO cells; TP2 (inactivated state inhibition)"}, "[2]": {"target": "Nav1.3 sodium channel (human SCN3A gene) (Homo sapiens, UniProt Q9NY46)", "format": "cell-based", "design": "host or cells: CHO", "conditions": "human Nav1.3 in CHO cells"}, "[3]": {"target": "Nav1.7 sodium channel (human SCN9A gene) (Homo sapiens, UniProt Q15858)", "format": "cell-based", "design": "expressed in transfected cells; host or cells: CHO cells", "conditions": "human Nav1.7 in CHO cells"}, "[4]": {"target": "Kv1.5 potassium channel (human KCNA5 gene) (Homo sapiens, UniProt P22460)", "format": "cell-based", "design": "host or cells: CHO", "conditions": "human Kv1.5 in CHO cells"}, "[5]": {"target": "Kv1.3 potassium channel (human KCNA3 gene) (Homo sapiens, UniProt P22001)", "format": "cell-based", "design": "host or cells: CHO", "conditions": "human Kv1.3 in CHO cells"}, "[6]": {"target": "Nav1.4 sodium channel (human SCN4A gene) (Homo sapiens, UniProt P35499)", "format": "cell-based", "design": "host or cells: CHO", "conditions": "human Nav1.4 in CHO cells"}},
  "note": "Where two headings read alike, the source gives them in different places. At least one structure is not confirmed: it was looked up by name or label, or the drawing left a doubt. Where a SMILES comes first, the peptide text is derived from it. Bridges are numbered along the chain shown (N, C = ends).",
  "data": [
    {"smiles": "CC[C@H](C)[C@H](NC(=O)[C@H](CCCNC(=N)N)NC(=O)[C@@H](NC(=O)[C@H](CO)NC(=O)CN)C(C)C)C(=O)N1CCC[C@H]1C(=O)N[C@H](C(=O)N[C@@H](CO)C(=O)N[C@H]1CSSC[C@@H]2NC(=O)[C@H](CCCCN)NC(=O)CNC(=O)[C@H](Cc3ccccc3)NC(=O)[C@H](CCCNC(=N)N)NC(=O)[C@H](CCSC)NC(=O)CNC(=O)[C@H](C)NC(=O)[C@H](CC(=O)O)NC(=O)[C@H](CCCCN)NC(=O)[C@@H]3CSSC[C@@H](C(=O)N[C@H](C(=O)N4CCC[C@H]4C(=O)N[C@@H](CCCCN)C(=O)O)[C@@H](C)O)NC(=O)[C@H](CC(=O)O)NC(=O)[C@H](CSSC[C@H](NC(=O)[C@H](CCC(N)=O)NC(=O)CNC(=O)[C@H](CO)NC(=O)[C@H](Cc4c[nH]cn4)NC(=O)[C@H](CCCCN)NC1=O)C(=O)N[C@@H](CC(C)C)C(=O)N[C@@H](CCCCN)C(=O)N1CCC[C@H]1C(=O)N3)NC(=O)[C@H](CCCCN)NC(=O)CNC(=O)[C@H](CC(N)=O)NC(=O)[C@H](CCSC)NC2=O)C(C)C", "note": "[SEQ ID NO: 6] (H-GSVRIPVSCKHSGQCLKPCKDAGMRFGKCMNGKCDCTPK-OH; disulfide 9-29, 15-34, 19-36)", "values": [
      {"measurement": "IC50", "setting": "[1]", "result": "> 1000", "unit": "nM"},
      {"measurement": "IC50", "setting": "[2]; TP1 (tonic inhibition), read-out: IC50 Nav1.3 ion channel inhibition, TP1", "result": "> 1000", "unit": "nM"},
      {"measurement": "IC50", "setting": "[2]; TP2 (inactivated state inhibition), read-out: IC50 Nav1.3 ion channel inhibition, TP2", "result": "> 1000", "unit": "nM"},
      {"measurement": "IC50", "setting": "[3]; TP1 (tonic inhibition), read-out: IC50 Nav1.7 ion channel inhibition, TP1", "result": "> 1000", "unit": "nM"},
      {"measurement": "IC50", "setting": "[3]; TP2 (inactivated state inhibition), read-out: IC50 Nav1.7 ion channel inhibition, TP2", "result": "> 1000", "unit": "nM"},
      {"measurement": "IC50", "setting": "[4]; test pulse TP1, read-out: IC50 Kv1.5 ion channel inhibition, TP1", "result": "> 1000", "unit": "nM"},
      {"measurement": "IC50", "setting": "[4]; test pulse TP6, read-out: IC50 Kv1.5 ion channel inhibition, TP6", "result": "> 1000", "unit": "nM"},
      {"measurement": "IC50", "setting": "[5]; read-out: IC50 against Kv1.3", "result": "< 1000", "unit": "nM"},
      {"measurement": "IC50", "setting": "[5]; test pulse TP1, read-out: IC50 Kv1.3 ion channel inhibition, TP1", "result": 895, "unit": "nM"},
      {"measurement": "IC50", "setting": "[5]; test pulse TP6, read-out: IC50 Kv1.3 ion channel inhibition, TP6", "result": 894, "unit": "nM"},
      {"measurement": "IC50", "setting": "[6]; TP1 (tonic inhibition), read-out: IC50 Nav1.4 ion channel inhibition, TP1", "result": "> 1000", "unit": "nM"},
      {"measurement": "IC50", "setting": "[6]; TP2 (inactivated state inhibition), read-out: IC50 Nav1.4 ion channel inhibition, TP2", "result": "> 1000", "unit": "nM"}
    ]}
  ]
}
